Consider one molecule from paper PMC10514341, “Organisation of the orthobunyavirus tripodal spike and the structural changes induced by low pH and K^+ during entry” (Nature Communications, 2023).

Results are given in words; binding and its absence hold for the method and conditions named. Some binding calls cover weakened binding; strength is not graded here.

For the experiment, the target named is T1, Bunyamwera virus (BUNV) glycoprotein Gc (Bunyamwera virus) (UniProt P04505).
T1 sequence (chain, N-linked glycan at N624): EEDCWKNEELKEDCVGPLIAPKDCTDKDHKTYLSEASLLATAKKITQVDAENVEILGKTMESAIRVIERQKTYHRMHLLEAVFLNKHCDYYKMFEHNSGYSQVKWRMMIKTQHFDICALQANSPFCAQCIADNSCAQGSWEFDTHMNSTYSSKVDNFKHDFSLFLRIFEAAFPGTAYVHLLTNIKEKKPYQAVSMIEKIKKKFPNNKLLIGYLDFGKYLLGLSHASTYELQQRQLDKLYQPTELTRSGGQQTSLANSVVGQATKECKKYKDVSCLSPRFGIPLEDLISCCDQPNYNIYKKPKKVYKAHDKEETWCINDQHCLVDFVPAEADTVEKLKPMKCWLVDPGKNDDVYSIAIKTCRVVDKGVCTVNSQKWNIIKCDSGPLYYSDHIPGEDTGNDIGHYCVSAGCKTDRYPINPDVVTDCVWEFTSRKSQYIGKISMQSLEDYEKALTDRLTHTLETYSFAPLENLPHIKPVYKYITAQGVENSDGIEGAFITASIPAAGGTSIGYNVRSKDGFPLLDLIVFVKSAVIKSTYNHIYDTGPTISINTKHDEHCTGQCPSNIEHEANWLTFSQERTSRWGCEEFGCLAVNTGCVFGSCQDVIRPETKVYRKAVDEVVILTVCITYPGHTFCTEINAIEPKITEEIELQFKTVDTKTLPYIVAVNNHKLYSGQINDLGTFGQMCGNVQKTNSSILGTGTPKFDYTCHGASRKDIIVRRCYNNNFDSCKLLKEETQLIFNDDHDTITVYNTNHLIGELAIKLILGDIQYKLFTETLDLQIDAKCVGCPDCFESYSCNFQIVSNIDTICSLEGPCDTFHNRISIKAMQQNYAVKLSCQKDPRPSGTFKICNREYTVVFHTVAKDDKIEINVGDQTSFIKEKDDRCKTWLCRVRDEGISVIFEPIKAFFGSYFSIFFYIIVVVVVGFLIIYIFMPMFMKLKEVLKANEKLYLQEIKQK
Kind of experiment: cryo-EM structure; cryo-electron tomography and subtomogram averaging (PEET, C3 symmetry) of glycoprotein spikes on purified BUNV virions, pH 7.3/no K+, 2 hr at 37 °C; tripod average ~16 Å, floor average ~13 Å (GS-FSC); X-ray head/stalk structures and an AlphaFold Gn-Gc model fitted into the maps.

B1: Bunyamwera virus (BUNV) glycoprotein Gn (natural protein, UniProt P04505 17-302, looked up)
chain: SPVITRCFHGGQLIAERKSQTSISEFCIKDDVSMLKSEIVYTKNDTGIFGHSKVFRHWTITDWKACNPVVTAGGSINVIEVDKNLNLVTRNYVCTGDCTITVDRKNAQIIFQTDKLNHFEVTGTTISTGWFKSKASVTLDRTCEHIKVSCGKKTLQFHACFKQHMSCVRFLHRSILPGSMAISICQNIELIIITILALCIFIIMIILTKTYICYVLIPVFMPIAFAYGWAYNRSCKKCTCCGLAYHPFTNCGSYCVCGSKFETSDRMRMHRESGLCQGFKSLRVAR
modifications: N-linked glycan at N60
notes: Glycoprotein Gn of Bunyamwera virus, cut from the M segment polyprotein (Gn-NSm-Gc); ectodomain 17-205; membrane-anchored in the virion envelope; Native Gn in the envelope of purified virions; also called BUNV Gn
In the case of B1, the binding result is recorded as “binds”.
